Experimental data: paper PMC9907809, “Conformational rearrangements in the sensory RcsF/OMP complex mediate signal transduction across the bacterial cell envelope” (PLOS Genetics, 2023)
Residue numbers refer to the chain shown, from its start. Names may count otherwise. No constants are given. Whether binding was seen depends on the method and setting. Binding seen in cells or lysates may run through a third protein. Some binding calls cover weakened binding; strength is not graded here. One block for each binder: values may come before it.

What was measured:
[1] = target: T1, RcsF(T53F)-Strep (UniProt P69411); test: pull-down; in vivo pull-down without crosslinking; membrane fractions solubilized in 1% DDM, RcsF-Strep held on Streptactin Sepharose, washed with 25 mM Tris-HCl pH 8.0, 150 mM NaCl, 0.02% DDM, eluted with desthiobiotin; immunoblots probed with α-OmpA and α-OmpC/F
T1 sequence (chain, lipidated N-terminal cysteine (residue 16)): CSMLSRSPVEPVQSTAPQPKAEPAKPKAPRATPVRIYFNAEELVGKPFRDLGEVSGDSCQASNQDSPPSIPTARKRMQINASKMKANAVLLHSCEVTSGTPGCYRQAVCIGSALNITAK

[2] = target: T2, RcsF(P62A)-Strep (UniProt P69411); test: as above
T2 sequence (chain, lipidated N-terminal cysteine (residue 16)): T1 sequence (chain, lipidated N-terminal cysteine (residue 16)) with F38T, P47A

[3] = target: T3, RcsF-Strep, wild type (UniProt P69411); test: as above
T3 sequence (chain, lipidated N-terminal cysteine (residue 16)): T1 sequence (chain, lipidated N-terminal cysteine (residue 16)) with F38T

[4] = target: T4, RcsF(A55V)-Strep (UniProt P69411); test: as above
T4 sequence (chain, lipidated N-terminal cysteine (residue 16)): T1 sequence (chain, lipidated N-terminal cysteine (residue 16)) with F38T, A40V

[5] = target: T5, RcsF(R64E)-Strep (UniProt P69411); test: as above
T5 sequence (chain, lipidated N-terminal cysteine (residue 16)): T1 sequence (chain, lipidated N-terminal cysteine (residue 16)) with F38T, R49E

[6] = target: T6, OmpA (not stated (endogenous in the host strain, background MC4100)) (UniProt P0A910); test: cross-linking; in vivo formaldehyde crosslinking; OM version of RcsF variants with endogenous OmpA (and BamA); immunoblot of whole cell lysates probed with α-RcsF, RcsF/OmpA band quantified relative to the WT
T6 sequence: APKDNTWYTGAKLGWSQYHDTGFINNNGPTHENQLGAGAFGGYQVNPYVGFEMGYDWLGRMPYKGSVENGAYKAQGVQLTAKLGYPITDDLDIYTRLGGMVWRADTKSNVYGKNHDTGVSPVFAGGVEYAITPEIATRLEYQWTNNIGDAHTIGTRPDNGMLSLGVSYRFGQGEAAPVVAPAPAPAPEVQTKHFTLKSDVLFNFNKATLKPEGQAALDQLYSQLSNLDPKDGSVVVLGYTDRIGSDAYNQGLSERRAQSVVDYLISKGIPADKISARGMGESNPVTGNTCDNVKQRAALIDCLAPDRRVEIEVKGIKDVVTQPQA

- binding [1]: binds
- binding [2]: binds
- binding [3]: binds
- binding [4]: binds
- binding [5]: binds
B1: OmpA (protein, UniProt P0A910 22-346)
chain: T6 sequence

- binding [1]: binds
- binding [2]: binds
- binding [3]: binds
- binding [5]: binds
B2: OmpC (protein, UniProt P06996 22-367)
chain: AEVYNKDGNKLDLYGKVDGLHYFSDNKDVDGDQTYMRLGFKGETQVTDQLTGYGQWEYQIQGNSAENENNSWTRVAFAGLKFQDVGSFDYGRNYGVVYDVTSWTDVLPEFGGDTYGSDNFMQQRGNGFATYRNTDFFGLVDGLNFAVQYQGKNGNPSGEGFTSGVTNNGRDALRQNGDGVGGSITYDYEGFGIGGAISSSKRTDAQNTAAYIGNGDRAETYTGGLKYDANNIYLAAQYTQTYNATRVGSLGWANKAQNFEAVAQYQFDFGLRPSLAYLQSKGKNLGRGYDDEDILKYVDVGATYYFNKNMSTYVDYKINLLDDNQFTRDAGINTDNIVALGLVYQF

- binding [6]: binds
B3: RcsF, OM version, wild type (protein, UniProt P69411 16-134)
chain: T1 sequence (chain, lipidated N-terminal cysteine (residue 16)) with F38T
modifications: lipidated N-terminal cysteine (residue 16)

- binding [6]: binds
B4: RcsF(P62A), OM version (protein, UniProt P69411 16-134)
chain: T1 sequence (chain, lipidated N-terminal cysteine (residue 16)) with F38T, P47A
modifications: lipidated N-terminal cysteine (residue 16)

- binding [6]: binds
B5: RcsF(R64E), OM version (protein, UniProt P69411 16-134)
chain: T1 sequence (chain, lipidated N-terminal cysteine (residue 16)) with F38T, R49E
modifications: lipidated N-terminal cysteine (residue 16)

- binding [6]: binds
B6: RcsF(T132I), OM version (protein, UniProt P69411 16-134)
chain: T1 sequence (chain, lipidated N-terminal cysteine (residue 16)) with F38T, T117I
modifications: lipidated N-terminal cysteine (residue 16)

- binding [1]: binds
- binding [2]: binds
- binding [3]: binds
- binding [5]: binds
B7: OmpF (protein, UniProt P02931 23-362)
chain: AEIYNKDGNKVDLYGKAVGLHYFSKGNGENSYGGNGDMTYARLGFKGETQINSDLTGYGQWEYNFQGNNSEGADAQTGNKTRLAFAGLKYADVGSFDYGRNYGVVYDALGYTDMLPEFGGDTAYSDDFFVGRVGGVATYRNSNFFGLVDGLNFAVQYLGKNERDTARRSNGDGVGGSISYEYEGFGIVGAYGAADRTNLQEAQPLGNGKKAEQWATGLKYDANNIYLAANYGETRNATPITNKFTNTSGFANKTQDVLLVAQYQFDFGLRPSIAYTKSKAKDVEGIGDVDLVNYFEVGATYYFNKNMSTYVDYIINQIDSDNKLGVGSDDTVAVGIVYQF
